The target in assay [1] is VPg of Potato virus Y, avirulent isolate LYE84 (Potato virus Y (isolate LYE84)). As to the kind of experiment: two-hybrid; Matchmaker GAL4 two-hybrid system 3; eIF4E1 variants fused to the GAL4 activation domain (pGADT7, AH109), VPg fused to the GAL4 binding domain (pGBKT7, Y187); after mating, growth on -LWH medium at 30°C, checked 2 to 7 days after spotting; growth as percent of pvr2^+ with VPg-PVY.

In assay [2] the target is VPg of Tobacco etch virus, avirulent isolate HAT (Tobacco etch virus (isolate HAT)). Described as above.

These are yes or no findings as the source states them, for the method shown. A result given as binding can be weak or reduced; the word gives no strength.

B1: eIF4E1 encoded by the pvr2^+ allele (pvr2/eIF4E1) (protein, UniProt A0A1U8GR65 1-228)
chain: MATAEMEKTTTFDEAEKVKLNANEADDEVEEGEIVEETDDTTSYLSKEIATKHPLEHSWTFWFDNPVAKSKQAAWGSSLRNVYTFSTVEDFWGAYNNIHHPSKLVVGADLHCFKHKIEPKWEDPVCANGGTWKMSFSKGKSDTSWLYTLLAMIGHQFDHEDEICGAVVSVRGKGEKISLWTKNAANETAQVSIGKQWKQFLDYSDSVGFIFHDDAKRLDRNAKNRYTV
As for B1, the binding result in assay [1] and in assay [2] was “binds” in each case.

B2: eIF4E1 encoded by the pvr2^23 allele (pvr2/eIF4E1) (protein, UniProt A0A1U8GR65 1-228)
chain: MATAEMEKTTTFDEAEKVKLNANEADDEVEEGEIVEETDDTTSYLSKEIATKHPLEHSWTFWFDNPVEKSKQAAWGSSLRNVYTFSTVEDFWGAYNNIHHPSKLVVGADLHCFKHKIEPKWEDPVCANGGTWKMSFSKGKSDTSWLYTLLAMIGHQFDHEDEICGAVVSVRGKGEKISLWTKNAANETAQVSIGKQWKQFLDYSDSVGFIFHDDAKRLDRNAKNRYTV
In the case of B2, the binding result in assay [1] is listed as “no binding”; in assay [2] it was “binds”.

B3: eIF4E1 encoded by the pvr2^4 allele (pvr2/eIF4E1) (protein, UniProt A0A1U8GR65 1-228)
chain: MATAEMEKTTTFDEAEKVKLNANEADDEVEEGEIVEETDDTTSYLSKEIATKHPLEHSWTFWFDNPEAKSKQAAWGSSLRNVYTFSTVEDFWGAYNNIHHPSKLVVGADLHCFKHKIEPKWEDPVCANGGTWKMSFSKGKSDTSWLYTLLAMIGHQFDHEDEICGAVVSVRGKGEKISLWTKNAANETAQVSIGKQWKQFLDYSDSVGFIFHDDAKRLDRNAKNRYTV
B3: the binding result is listed as “no binding” in assay [1] and “binds” in assay [2].
